# Article PMC10724265
# The chains behind the UniProt entries cited, without tags or fusion partners.
# UniProt Q9H6L5: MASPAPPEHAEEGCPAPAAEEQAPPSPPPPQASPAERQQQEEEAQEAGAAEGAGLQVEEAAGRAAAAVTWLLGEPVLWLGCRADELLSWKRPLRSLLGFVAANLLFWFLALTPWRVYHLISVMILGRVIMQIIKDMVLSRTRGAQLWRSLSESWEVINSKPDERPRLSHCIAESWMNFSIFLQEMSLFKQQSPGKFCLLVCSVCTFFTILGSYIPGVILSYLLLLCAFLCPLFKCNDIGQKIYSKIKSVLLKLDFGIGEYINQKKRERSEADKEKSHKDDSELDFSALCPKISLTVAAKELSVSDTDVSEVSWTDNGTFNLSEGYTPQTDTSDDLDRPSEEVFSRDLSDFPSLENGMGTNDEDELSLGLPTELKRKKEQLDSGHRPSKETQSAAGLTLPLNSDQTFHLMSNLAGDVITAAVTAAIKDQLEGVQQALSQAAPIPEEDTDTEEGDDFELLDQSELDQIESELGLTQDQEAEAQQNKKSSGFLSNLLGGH
# These are yes or no findings as the source states them, for the method shown. In cells and extracts the contact can be indirect. Some entries that bind do so weakly or less than the wild type.
# Columns and labels:
# [1] = target: V1-FAM134B and V2-FAM134B (split Venus / half GFP fusions of FAM134B) (UniProt Q9H6L5); experiment: split reporter; bimolecular complementation affinity purification (BiCAP): V1- and V2-tagged copies co-transfected in HEK293T, reconstituted GFP precipitated with GFP-Trap beads from RIPA lysate; cells treated 6 h under basal, Torin1 or Torin1 + CK2 inhibitor conditions
# [2] = target: V1-FAM134C and V2-FAM134C (split Venus / half GFP fusions of FAM134C) (UniProt Q86VR2); experiment: as above
binding [1],binding [2],Substance
binds,–,V1-FAM134B and V2-FAM134B (split Venus / half GFP fusions of FAM134B) (from UniProt Q9H6L5 1-497)
–,binds,V1-FAM134C and V2-FAM134C (split Venus / half GFP fusions of FAM134C) (from UniProt Q86VR2 1-466)
